The text below walks through data of publication PMC8041770.

Results are given in words; binding and its absence hold for the method and conditions named. Some entries that bind do so weakly or less than the wild type. Where a sequence is shown, tags or fusion partners need not be part of it.

Experiment [1] has as its target T1, yeast-displayed human LIFR CBM I-Ig-like-CBM II (Gln45 to Ser534) (human) (UniProt P42702).
T1 sequence: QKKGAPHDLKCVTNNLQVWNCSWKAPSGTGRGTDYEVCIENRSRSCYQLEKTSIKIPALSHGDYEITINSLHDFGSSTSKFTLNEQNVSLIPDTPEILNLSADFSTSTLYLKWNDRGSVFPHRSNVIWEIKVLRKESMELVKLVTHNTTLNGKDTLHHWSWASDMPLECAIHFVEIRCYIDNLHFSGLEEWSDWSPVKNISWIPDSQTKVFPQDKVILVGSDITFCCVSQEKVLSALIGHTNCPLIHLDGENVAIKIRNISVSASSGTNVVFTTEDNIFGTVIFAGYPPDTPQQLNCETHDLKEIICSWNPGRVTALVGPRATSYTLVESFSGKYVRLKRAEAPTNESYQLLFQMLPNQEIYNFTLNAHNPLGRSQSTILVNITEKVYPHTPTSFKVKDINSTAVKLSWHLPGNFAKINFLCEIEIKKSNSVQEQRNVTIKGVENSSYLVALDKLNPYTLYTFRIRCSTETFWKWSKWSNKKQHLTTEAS
Put plainly: flow cytometry on cells; receptor displayed on yeast, soluble cytokine titrated in PBS with 1 mg/ml BSA; bound cytokine detected by fluorescent antibodies; apparent Kd by non-linear regression; only the binder purified.

For experiment [2], the target named is T2, yeast-displayed wild-type human LIFR CBM I–Ig-like–CBM II domains (Gln45 to Ser534) (human) (UniProt P42702).
T2 sequence: T1 sequence
Put plainly: flow cytometry on cells; LIFR constructs displayed on yeast (EBY100), soluble tagged cytokine (LIF-His and others) in PBS with 1 mg/ml BSA, detected by antibody to the tag; gated on c-myc-positive yeast; apparent affinity by non-linear regression; only the binder purified. For orientation: A flow cytometer gives signals particle by particle.

B1: recombinant human cardiotrophin-1-Fc (Fc fusion, UniProt Q16619 1-201)
chain: MSRREGSLEDPQTDSSVSLLPHLEAKIRQTHSLAHLLTKYAEQLLQEYVQLQGDPFGLPSFSPPRLPVAGLSAPAPSHAGLPVHERLRLDAAALAALPPLLDAVCRRQAELNPRAPRLLRRLEDAARQARALGAAVEALLAALGAANRGPRAEPPAATASAASATGVFPAKVLGLRVCGLYREWLSRTEGDLGQLLPGGSA
For B1, the binding entry in experiment [1] is “binds weakly”.

B2: recombinant human cardiotrophin-1 Fc fusion (hCTF-1-Fc) (Fc fusion, UniProt Q16619 1-201)
chain: B1 chain
Consider B2, for which the binding result in experiment [2] was “binds weakly”.

B3: recombinant human oncostatin M-His (ligand, UniProt P13725 26-221)
chain: AAIGSCSKEYRVLLGQLQKQTDLMQDTSRLLDPYIRIQGLDVPKLREHCRERPGAFPSEETLRGLGRRGFLQTLNATLGCVLHRLADLEQRLPKAQDLERSGLNIEDLEKLQMARPNILGLRNNIYCMAQLLDNSDTAEPTKAGRGASQPPTPTPASDAFQRKLEGCRFLHGYHRFMHSVGRVFSKWGESPNRSRR
For B3, in experiment [1], the binding result is “binds weakly”.

B4: recombinant human oncostatin M, His-tagged (hOSM-His) (ligand, UniProt P13725 26-221)
chain: B3 chain
Regarding B4, in experiment [2], the binding entry was “binds weakly”.
